Results: patent publication US20150246024A1 (priority 2012, published 2015)

Tested on: S. aureus RN4220
Assay: Selection of resistant S. aureus variants on agar
Type: cell-based

SMILES | frequency of resistant mutants (LB agar, filter disk, 2.4×10^7 CFU) | frequency of resistant colonies (Mueller-Hinton agar, gradient 10-200 μM compound 1771, 2×10^9 CFU)
[H]/N=C(/N)N[C@H]1[C@H](O)[C@@H](O)[C@H](O[C@@H]2O[C@@H](C)[C@](O)(C=O)[C@H]2O[C@@H]2O[C@@H](CO)[C@H](O)[C@@H](O)[C@@H]2NC)[C@@H](N/C(N)=N\[H])[C@@H]1O [streptomycin, reference compound] | < 10^−7 | –
O=C(COC(=O)Cc1coc2ccc3ccccc3c12)Nc1nnc(-c2ccccc2)o1 [Compound 1771, 2-oxo-2-[(5-phenyl-1,3,4-oxadiazol-2-yl)amino]ethylnaphtho[2,1-b]furan-1-ylacetate] | – | ≤ 2×10^−9
